# Experimental data: article PMC6803640, “Oligomeric state, hydrodynamic properties and target recognition of human Calcium and Integrin Binding protein 2 (CIB2)” (Scientific Reports, 2019)
# Sequences of proteins named here, by UniProt entry; tags and fusion partners are left off.
# UniProt O75838: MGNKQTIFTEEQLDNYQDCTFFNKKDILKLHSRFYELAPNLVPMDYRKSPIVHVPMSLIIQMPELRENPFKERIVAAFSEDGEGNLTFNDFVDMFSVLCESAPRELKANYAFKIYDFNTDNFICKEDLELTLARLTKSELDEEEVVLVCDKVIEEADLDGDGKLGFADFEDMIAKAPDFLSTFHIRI
# Results are given in words; binding and its absence hold for the method and conditions named. Some binding calls cover weakened binding; strength is not graded here.
# Key:
# [1] = target: Calcium- and Integrin-Binding protein 2 (CIB2), human, untagged (human) (UniProt O75838); test: SPR; untagged CIB2 immobilised at low levels (100-200 RU) on a COOH5 chip via amine coupling; 30 µM peptides injected; 20 mM HEPES pH 7.5, 150 mM KCl, 1 mM DTT, 1 mM Mg2+, 2 mM Ca2+, 50 µM EDTA, 0.005% Tween; both purified
# [2] = target: His-tagged CIB2, human (TEV protease recognition site and His tag kept) (human) (UniProt O75838); test: SPR; His-tagged CIB2 captured by its His tag on a His-cap chip, then blocked via amine coupling; peptides injected (7.5 µM; α7B_M titrated 230 nM-30 µM); 20 mM HEPES pH 7.5, 150 mM KCl, 1 mM DTT, 1 mM Mg2+, 2 mM Ca2+, 50 µM EDTA, 0.005% Tween; bivalent analyte model and steady state analysis; apparent constants; both purified
# [3] = target: Calcium- and Integrin-Binding protein 2 (CIB2), human, untagged (human) (UniProt O75838); test: cross-linking; 10 µM CIB2 incubated with 5, 10 or 20 µM peptide, then 50-fold molar excess of DSBU for 20 min at room temperature; 20 mM HEPES pH 7.5, 1 mM DTT, 1 mM Mg2+, 2 mM Ca2+; read by MALDI-TOF-MS of the intact protein; both purified
binding [1],binding [2],binding [3],Binder
no binding (tested: 30 µM),no binding (tested: 7.5 µM),,"LAADGHPELGPDGHPGPGTA (N-terminal acetylated) [α7B_C peptide, C-terminal region of the cytoplasmic domain of α7B integrin]"
binds weakly,binds weakly,binds weakly,"KEFWGLHAKPRLKLMF (N-terminal acetylated; C-terminal amidated) [α7B_Scrb peptide, same amino acid content as α7B_M but randomized sequence]"
